Source: ChEMBL document CHEMBL1821726, “The discovery of benzanilides as c-Met receptor tyrosine kinase inhibitors by a directed screening approach” (Bioorg Med Chem Lett, 2011)

Experiment: Lipophilicity, log D of the compound at pH 7.4
Settings: buffer

O=C(Nc1cccc(O)c1)c1ccc(OCCCN2CCCC2)cc1OCc1cccc(F)c1
logD: 3.1
